Experimental data: publication PMC4766697
No constants are given. Whether binding was seen depends on the method and setting. For some assays here: Binding seen in cells or lysates may run through a third protein. Some results given as binding are weak or reduced against the parent protein; the word gives no strength.

Amino acid sequences for entries named in this document (tags omitted).
UniProt P16858: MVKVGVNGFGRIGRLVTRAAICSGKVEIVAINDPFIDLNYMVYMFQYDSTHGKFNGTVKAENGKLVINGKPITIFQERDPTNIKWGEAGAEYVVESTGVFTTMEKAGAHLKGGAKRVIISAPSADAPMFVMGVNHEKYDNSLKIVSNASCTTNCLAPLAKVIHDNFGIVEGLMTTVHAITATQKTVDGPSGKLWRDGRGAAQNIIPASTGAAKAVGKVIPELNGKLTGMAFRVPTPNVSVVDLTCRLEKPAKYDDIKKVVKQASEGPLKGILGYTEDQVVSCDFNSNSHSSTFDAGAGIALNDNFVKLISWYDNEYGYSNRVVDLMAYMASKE
UniProt P52480: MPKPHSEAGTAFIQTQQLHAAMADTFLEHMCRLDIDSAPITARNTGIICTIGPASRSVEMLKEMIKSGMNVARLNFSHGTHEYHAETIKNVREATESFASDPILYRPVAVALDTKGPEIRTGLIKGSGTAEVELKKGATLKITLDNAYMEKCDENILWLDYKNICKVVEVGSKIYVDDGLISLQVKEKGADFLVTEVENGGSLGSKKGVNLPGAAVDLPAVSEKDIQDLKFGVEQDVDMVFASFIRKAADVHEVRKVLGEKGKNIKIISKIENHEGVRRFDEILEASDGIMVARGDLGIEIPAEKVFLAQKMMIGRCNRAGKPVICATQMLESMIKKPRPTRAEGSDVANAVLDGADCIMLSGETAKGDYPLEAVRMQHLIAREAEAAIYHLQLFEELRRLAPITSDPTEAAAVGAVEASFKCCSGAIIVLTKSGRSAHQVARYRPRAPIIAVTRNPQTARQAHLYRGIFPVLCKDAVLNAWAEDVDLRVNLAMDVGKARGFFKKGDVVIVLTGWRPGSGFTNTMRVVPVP

Tests used:
[1] = molecular target: Glyceraldehyde-3-phosphate dehydrogenase (mouse (endogenous in EAC cells and mouse tissue)) (UniProt P16858); assay: co-IP; 3MC induced mouse tumor tissue lysate in modified RIPA buffer (50 mM Tris/HCl pH 8.0, 150 mM NaCl, 1.0 % Nonidet P-40, 4 mM EDTA); primary antibody overnight at 4 °C, protein G agarose 4 h, western blot; GAPDH immunoprecipitation also in the presence of 1 mM MG
[2] = molecular target: Glyceraldehyde-3-phosphate dehydrogenase (mouse (endogenous in EAC cells and mouse tissue)) (UniProt P16858); assay: co-purification; GAPDH purified from EAC cells by its enzymatic activity up to a DEAE-Sephacell column; eluent run on 7.5-15 % SDS-PAGE, bands identified by MALDI-TOF/TOF and by immunoblot

binding [1]: binds
binding [2]: binds
Substance: Pyruvate kinase M2 (from UniProt P52480 1-531) (enzyme)
